At least one read-out could not be matched to a standard name with certainty.
Experiment: Pharmacokinetics after inhalational administration of PS
Assay type: in vivo, mice
Settings: lung, after 8 min inhalation; label = analyte

SMILES: CC1=C(CC(=O)O)c2cc(F)ccc2/C1=C\c1ccc(S(C)(=O)=O)cc1 [Sulindac sulfone 147, sulindac sulfone]
- Cmax: 4.6 nmol/g

From patent US20130225529A1, “PHOSPHO-ESTER DERIVATIVES AND USES THEREOF” (priority 2012, published 2013)
